Experimental data taken from US9750252B2, “Arylalkyloxy pyrimidine derivative, pesticide for agricultural and horticultural use containing arylalkyloxy pyrimidine derivative as active ingredient, and use of same” (NIHON NOHYAKU CO., LTD., priority 2012, dated 2017).
Some results were stated once for a whole list of compounds, not compound by compound. Some compounds share one range, which may span the group rather than tell each member.

System: Brown Rice Planthopper (Nilaparvata Lugens)
Assay type: in vivo
Conditions: 500 ppm liquid chemical, rice seedlings immersed 30 seconds, third-instar nymphs; eight days after the inoculation

Q: With `Clc1ccc(COc2ncncc2C2OCCCCO2)cc1` [15-67] as the compound, how does the “insecticidal effect (corrected mortality) against brown rice planthopper” value (“insecticidal effect” below) read?
A: D (control efficacy 79%-50%)

Q: `Clc1ccc(COc2ncncc2C2OCCCCO2)cc1Cl` [15-70] was tested. Which “insecticidal effect” value did it give?
A: D (control efficacy 79%-50%)

Q: Which “insecticidal effect” value does the source give for `Clc1ccc(COc2ncncc2C2OCCCCO2)c(Cl)c1` [15-71] here?
A: D (control efficacy 79%-50%)

Q: With `CC(=O)OCC1COC(c2cncnc2OCc2ccc(C(F)(F)F)cc2)O1` (centres unmarked) [15-72] as the compound, how does the “insecticidal effect” value read?
A: D (control efficacy 79%-50%)

Q: For `FC(F)(F)c1ccc(COc2ncncc2C2O[C@H]3CCC[C@H]3O2)cc1` (some centres unmarked) [15-85], which “insecticidal effect” value is on record?
A: D (control efficacy 79%-50%)

Q: `FC(F)(F)c1ccc(COc2ncncc2C2OCc3ccccc3O2)cc1` (centres unmarked) [15-100] was tested. Which “insecticidal effect” value did it give?
A: D (control efficacy 79%-50%)

Q: For `FCC1COC(c2cncnc2OCc2ccc(C(F)(F)F)cc2)OC1` (centres unmarked) [15-109], which “insecticidal effect” value is on record?
A: D (control efficacy 79%-50%)

Q: For `FC(F)(F)c1ccc(COc2ncncc2C2OCC(F)(F)C(F)(F)CO2)cc1` [15-112], which “insecticidal effect” value is on record?
A: D (control efficacy 79%-50%)
